Consider 104 sequences from PubChem BioAssay AID1347423 (Functional Genomics Laboratory (NCATS/FGL), 2020).

Among all 52,000 sequences or so, about 210 (0.4%) were called active.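 Rule for the calls: active = gene whose silencing raises cell survival under the drug, median off-target-corrected z-score across its silencing RNAs 2 or more; inactive = the rest.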 The list shows a part of the results.

A short description of this test: Resistance to Poly (ADP-Ribose) Polymerase inhibitor: Gene Identification via Genome-wide siRNA Screen. The following applies: mouse BRCA2 R2336H ES cells, olaparib, CellTiter-Glo viability; active compounds read high. In a few lines:
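Genome-wide siRNA screen (3 siRNAs/gene, 20 nM) in mouse ES cells carrying hypomorphic BRCA2 R2336H; olaparib 500 nM added 48 h post-transfection, CellTiter-Glo viability 72 h later. Normalized to plate-median negative control; MAD z-scores, gene median, seed-adjusted.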
Background: Cellular ATP, detected with luciferase, serves as a proxy for viable cell number.
For GGAAGGGUCAGAAAAAUGUTT against Slc1a2, the z-score was inactive: 0.779.
To “GGUGUCUUUGCUCUUAAUUTT against 5730470L24Rik” belongs inactive: 0.926; to “GGUAAAGAUCCAGUGCCGCTT against 1810062O14Rik”, inactive: 0.886.
To “CCAAAUGCUUAUCUCUACATT against C330023D02Rik” belongs inactive: -0.776.
To GGUGGUGGAACAAGAUGAGTT against Psen1 belongs inactive: 1.58.
GGAGUUUGUGUUUUAUCUATT against Ppp1r3b: the z-score was inactive: 1.12.
With “GGCAGAGCUAGAUCAAAUUTT against 1810015C04Rik”, the z-score was inactive: -0.687.
Turning to GGUAUUUUUUUCUCAGCCATT against Dhdh, the z-score is inactive: -0.108.
As to GCACCUAACUCUAGUUUUGTT against Golga7, the z-score is inactive: 0.953.
Consider GGGAACAUGUAAACUAACGTT against Klf3, for which the z-score was inactive: 0.667.
The same measure for GGUUCUUUUUGGUGUUAUGTT against Psme3: inactive: 1.04; for GCUACUAUCUGGAGUCGUATT against Pycard: inactive: -0.911; for GGCUUAAGUGUGCAGCUACTT against B3gnt4: inactive: 0.865.
On to GGAGAACACCAAAAAGGGCTT against Uncx4.1, for which the z-score is inactive: -0.808.
To GGUGGACAUGAGCAAAGUATT against Srrm1 belongs inactive: 0.786; to GGUCCUUUCCCAUAACCUGTT against Swap70, inactive: 0.826; to GGUGAAAUAUGUUAUCUGGTT against Copa, inactive: -3.31.
To CAAACCUUGUUGCCAUGACTT against Olfr406 belongs inactive: 1.13.
Regarding GCGGAAGUCGGAUUUUAUCTT against Kif1c, the z-score was inactive: -0.771.
The same measure for CCUAUGUUUUAGCAAGCAGTT against Acyp2: inactive: 0.0183; for GGUGUACCUCUGAAAAAAATT against Zbp1: inactive: -0.735; for GGGAAACUUUGCCACCUUATT against Tm4sf7: inactive: -0.305.
To GAGACUAAUAUAGUGAAUGTT against Foxj1 belongs inactive: 1.1.
To GGAGAAGUCCAAAUUCGAGTT against Raly belongs inactive: -0.265; to GGCCGUCGGAAAAAGGAUGTT against Abcf1, inactive: -0.905.
For the sequence GGGCCACAGUUUCAGCUUCTT against H6pd, the z-score is inactive: 1.71.
To “GCACUAGCAGGAUUCAUUGTT against C030002O17Rik” belongs inactive: 1.4; to “GGAUUUGAACUCAGAUGUUTT against A430057M04Rik”, inactive: -1.58.
GGCUCAUAUUUGCUACUGUTT against Gprc5d: the z-score is inactive: 0.608.
The same measure for GGAAGGAUCCGUGAUGAAGTT against BC049730: inactive: -0.875; for GGACACAGACACCAAACAATT against Gcn5l2: inactive: 2.6; for CGAAACAUCCCUAUGCUCUTT against Lsm3: inactive: -0.163.
Turning to GGCUGUGGAUUUCUCUCUGTT against Kng1, the z-score was inactive: 0.0352.
To GGAGCCAGAACCUGAAAUUTT against Ankrd1 belongs inactive: -0.369; to GUUGUAUUUCUUUGCCUUCTT against Olfr1098, inactive: -1.01; to “GGACAUUUGACACACAACATT against 1200016D23Rik”, inactive: -0.466.
Regarding “GGAUGUGCAAGAGAAAUUCTT against 3010001K23Rik”, the z-score is inactive: 0.717.
For the sequence GGAGAUCAUGUCCAAGUACTT against Bk, the z-score is inactive: -0.973.
Consider “GGUGACUUCCACUCUAACUTT against 4933406N12Rik”, for which the z-score is inactive: 1.09.
In the case of GCUCAUAGAGCAAAUACGUTT against Sall1, the z-score was inactive: -0.498.
Take “CCUGAAAGAUAACAAGUGGTT against 6530404N21Rik”: the z-score is inactive: -2.39.
For the sequence GGGUGCUAAUCUGAAAGGUTT against Kctd9, the z-score was inactive: 0.995.
On to GCCGACGAGUAUACUAGACTT against Odz3, for which the z-score was inactive: -0.0279.
The same measure for GGAAUUAUCUGAGCCUGUGTT against BC021381: inactive: -2.61; for CCAAGUGUUACCUCACUACTT against Cables2: inactive: -0.782.
To GCACUAUCCACAUGCACAUTT against Olfr1281 belongs inactive: 0.84.
Take GGUAAAACAGAGGAGUCGGTT against AI480556: the z-score was inactive: 1.54.
Turning to GGAUGGAAAACUCAUCAUCTT against Gnb1, the z-score was inactive: -2.74.
To CCAAGAAAUGUAUGCCAUUTT against Slc26a2 belongs inactive: 0.433.
The same measure for GCCUGAUUAGCAAGUGAUGTT against Evx1: inactive: -0.0221; for GGUUGCUAAUAGGGAAGAUTT against Rxrip110: inactive: -0.809.
For “GCUCCUUUAGCAUCUUAAUTT against 1700009P13Rik”, the z-score was inactive: -0.217.
The same measure for GGGUGUGACCGAAGCUCAUTT against D10Jhu81e: inactive: 1.06.
To GGAACUGAAAUUCAGUUGGTT against Oazin belongs inactive: -0.825; to CCAAGAGUUGUCAAUAUAATT against Crisp3, inactive: -0.639.
Consider “CCACACAGUUAAUUGAAAUTT against D13Wsu123e”, for which the z-score is inactive: 0.0298.
The same measure for “GGACUGCCUUAUGCUACGATT against 2900045N06Rik”: inactive: -0.461; for GCAGACCAUAUUACAAGUUTT against Herc3: inactive: -1.45.
GGAUAACUUGAUCCACCACTT against Olfr382: the z-score is inactive: 0.715.
The same measure for GGAGAACGAAAGGAUGAAATT against Rpusd4: inactive: -1.09.
As to GGAUUUAGUGUAAUGCCAATT against Pfn4, the z-score is inactive: -0.0915.
In the case of GGAGAUCGAUGGAGACUUCTT against Sftpa1, the z-score is inactive: -2.69.
The same measure for “GGCAGAGAUUAGAUCUCAGTT against 1700025D03Rik”: inactive: -0.468; for CCUUUAACCCUCAACUCAATT against H47: inactive: -0.11.
With GGUAAUUAGUGAAAUGGUUTT against Pum2, the z-score was inactive: 0.653.
The same measure for CCCAGUUGGUGUUUAUAUATT against Ppp3cb: inactive: 1.36.
To CGAUUUGGCCUUGAUGGGUTT against Wtip belongs inactive: -0.561.
Take CGGUUACAGGUGAAAUCCUTT against Sval1: the z-score was inactive: -1.62.
The same measure for GGAUUUUGAGAAGAACAAUTT against Tceb3: inactive: 0.251; for GCUGCUUCUAAACUUUGUATT against BC038059: inactive: 0.0695.
Turning to GGCAGGUUUUUGACAACUUTT against Fxyd4, the z-score is inactive: -0.598.
To GCGCAAAGGGUUUGUUAAGTT against Mogat1 belongs inactive: 0.0768; to GCAAAUGCUGUCAGUGGGATT against Cd59b, inactive: 0.44.
To GGUGUCUUUACGUCUCCCATT against Neto1 belongs inactive: 1.28; to “GGUCGUCUUUUAAGAGUUUTT against 2010109K11Rik”, inactive: 0.648; to “GGGACUAUUUCAACAAAGUTT against 1700013B16Rik”, inactive: 0.433.
The same measure for GGAGUCUGUGAACAAUCUCTT against Mx2: inactive: 0.404; for CCCUGUUUAACUAUUACAATT against Tmc2: inactive: -0.732; for GGAGAGAAAAACACCUAUGTT against Prlr: inactive: -0.897.
In the case of “GGAAACGAUGAAGAACAAATT against 4933427D06Rik”, the z-score is inactive: -0.835.
Take GGAGUCAAGUACGAUGUGATT against C8b: the z-score is inactive: -1.87.
The same measure for GCUGGUAUGGAUUGUUUCGTT against Ccng2: inactive: 0.25; for GGUAUAGUAGUGGAAGAUUTT against Vdp: inactive: 0.586.
The same measure for GGCUGAUUAUCACAGCAAGTT against Ablim2: inactive: 0.145.
GGUACAAAUCGAUUGUCAATT against Fdps: the z-score was inactive: 0.431.
Turning to GGUACACCAAGGCUUGCUATT against Adck4, the z-score is inactive: -0.932.
Regarding GGAAAAGAAGUGACCUGCUTT against Anapc4, the z-score was inactive: -1.98.
On to GGCCUGGAAGUCAUAUCUGTT against Tcfcp2l3, for which the z-score is inactive: 1.08.
As to “CGCACAGUACCUUUACCUCTT against A630052C17Rik”, the z-score was inactive: -0.415.
As for GCCAUGGAAAAUUUCCUCCTT against Olfr357, the z-score was inactive: 0.495.
With GCUAAGUACAACUUCACAATT against Olfr303, the z-score is inactive: -1.1.
The same measure for GCUAACAUGUGUGCAGACCTT against Csf2: inactive: -1.22; for GGAAUUGGAUGAAAUGCCATT against BC024479: inactive: 1.16; for GGCUAUAAAGAAGAGUCUGTT against Adhfe1: inactive: -0.0804.
Take GGUUCUUUCAGAAAAUGGATT against Csen: the z-score was inactive: 0.321.
With GGAUGAGAUCAACUUCCUCTT against Krt2-7, the z-score is inactive: 0.139.
The same measure for GGAAGUAUCUGGAAAGGGATT against Usp2: inactive: 0.595.
On to GGUAUCAGAGACAACCAAATT against Chad, for which the z-score was inactive: -1.26.
The same measure for GUAUGAACCUAACACAUUCTT against V1rh17: inactive: -0.987; for GGUUUGUAGAGGCAUCAAGTT against Snph: inactive: 0.512.
To “GGAGAUAAAGGGAACACCATT against 2410001C21Rik” belongs inactive: 2.97; to CGCCUAAGAAUAUGAAAAATT against Nek3, inactive: -0.954; to CCAGGAUCAAAGAACUUAUTT against Olfr1424, inactive: 0.117.
To “GGAGGCUGAAAAGUUCCGGTT against 1110007C09Rik” belongs inactive: -0.754.
